Reference: the supplement of paper PMC9938546
Counter-ions that a name gives are not always drawn. This is one part of the list. Baselines shift from plate to plate; read single values as rough.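 HCT116-GFP, a KRAS-mutant, microsatellite-unstable human colorectal cancer line, constantly expresses green fluorescent protein; immune cells were from healthy donors. Cancer cell survival was tracked by live-cell imaging of green fluorescence, and activated immune cells by themselves reduced survival to roughly half.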

Each compound was assayed on HCT116-GFP (assay: HCT116-GFP viability (GFP intensity) relative to untreated HCT116-GFP monoculture control, co-culture with activated PBMCs; higher = less cancer cell killing). Conditions: culture: co-culture with anti-CD3/IL2 activated PBMCs 1:1; 10 µM; 72 h.
For `Nc1ccc(S(=O)(=O)Nc2cnc3ccccc3n2)cc1` [Sulfaquinoxaline sodium salt], the HCT116-GFP viability was 73%.
`NCCCC(O)(P(=O)(O)O)P(=O)(O)O` [Alendronate sodium] showed an HCT116-GFP viability of 48.9%.
`N=C(N)NCc1cccc(I)c1` [Iobenguane sulfate] gave an HCT116-GFP viability of 34.5%.
In the case of `NC(=O)OCC(COC(N)=O)c1ccccc1` [Felbamate], the HCT116-GFP viability is reported as 34.6%.
In the case of `C[C@H]1NC(=O)NC1=O` [Methylhydantoin-5-(D)], the HCT116-GFP viability is reported as 75.2%.
With `Cc1ccnc(NS(=O)(=O)c2ccc(N)cc2)n1` [Sulfamerazine] the HCT116-GFP viability was 68.3%.
Work on `CC(C)n1c(/C=C/C(O)CC(O)CC(=O)O)c(-c2ccc(F)cc2)c2ccccc21` (centres undefined) [Fluvastatin sodium salt] yielded an HCT116-GFP viability of 35.9%.
For `CCCCNc1cc(C(=O)O)cc(S(N)(=O)=O)c1Oc1ccccc1` [Bumetanide], the HCT116-GFP viability was 40.3%.
In the case of `CNC(=O)c1c(I)c(C(=O)NCC(=O)Nc2c(I)c(C(=O)O)c(I)c(C(=O)NCCO)c2I)c(I)c(N(C)C(C)=O)c1I` [Ioxaglic acid], the HCT116-GFP viability is reported as 41.8%.
`CC(=O)Oc1ccccc1C(=O)Oc1ccccc1C(=O)O` [Acetylsalicylsalicylic acid] was tested, and the HCT116-GFP viability was 52.3%.
Work on `CCN(CC)CCOC(=O)c1ccc(N)cc1` [Procaine hydrochloride] yielded an HCT116-GFP viability of 67.8%.
In the case of `Cc1c(C)c2c(c(C)c1O)CCC(C)(C(=O)O)O2` (centres undefined) [Trolox], the HCT116-GFP viability is reported as 32%.
With `CC[C@H](C)C(=O)O[C@H]1C[C@@H](C)C=C2C=C[C@H](C)[C@H](CC[C@@H]3C[C@@H](O)CC(=O)O3)[C@H]21` [Lovastatin] the HCT116-GFP viability was 54.4%.
Work on `CC(=O)N[C@@H](CS)C(=O)O` [Acetylcysteine] yielded an HCT116-GFP viability of 50.8%.
`CC(=O)O[C@H]1C[C@@]2(C)[C@@H](C[C@@H](O)[C@H]3[C@@]4(C)CC[C@@H](O)[C@@H](C)[C@@H]4CC[C@@]32C)/C1=C(\CCC=C(C)C)C(=O)O` [Fusidic acid sodium salt] was tested, and the HCT116-GFP viability was 51.2%.
`CN(C)CCn1nnnc1SCC1=C(C(=O)O)N2C(=O)[C@@H](NC(=O)Cc3csc(N)n3)[C@H]2SC1` [Cefotiam hydrochloride] gave an HCT116-GFP viability of 35.4%.
Compound `C[C@@H]1C[C@H]2[C@@H]3C[C@H](F)C4=CC(=O)C=C[C@]4(C)[C@@]3(Cl)[C@@H](O)C[C@]2(C)[C@H]1C(=O)COC(=O)C(C)(C)C` [Clocortolone pivalate] has an HCT116-GFP viability of 71.3%.
With `OC(c1cc(C(F)(F)F)nc2c(C(F)(F)F)cccc12)C1CCCCN1` (centres undefined) [Mefloquine hydrochloride] the HCT116-GFP viability was 3.49%.
`CNCCCC12CCC(c3ccccc31)c1ccccc12` [Maprotiline hydrochloride] gave an HCT116-GFP viability of 71.5%.
With `CC1(C)O[C@@H]2C[C@H]3[C@@H]4CCC5=CC(=O)CC[C@]5(C)[C@@]4(F)[C@@H](O)C[C@]3(C)[C@]2(C(=O)CCl)O1` [Halcinonide] the HCT116-GFP viability was 85.6%.
Compound `C[C@]12C=CC(=O)C=C1CC[C@H]1[C@@H]3C[C@@H](O)[C@](O)(C(=O)CO)[C@@]3(C)C[C@H](O)[C@@]12F` [Triamcinolone] has an HCT116-GFP viability of 76.1%.
In the case of `CCN(CC)C(=O)/C(C#N)=C/c1cc(O)c(O)c([N+](=O)[O-])c1` [Entacapone], the HCT116-GFP viability is reported as 42.6%.
`C[C@@H](O)[C@H]1C(=O)N2C(C(=O)O)=C(S[C@@H]3CN[C@H](C(=O)N(C)C)C3)[C@H](C)[C@H]12` [Meropenem] was tested, and the HCT116-GFP viability was 24.3%.
With `CC(=O)O[C@H]1C[C@@H]2CC[C@@H]3[C@H](CC[C@@]4(C)[C@H]3C[C@H]([N+]3(C)CCCCC3)[C@@H]4OC(C)=O)[C@@]2(C)C[C@@H]1N1CCCCC1` [Vecuronium bromide] the HCT116-GFP viability was 38.8%.
In the case of `CC(C)NC[C@H](O)COc1cccc2ccccc12` [(S)-propranolol hydrochloride], the HCT116-GFP viability is reported as 37.2%.
In the case of `CN(C/C=C/c1ccccc1)Cc1cccc2ccccc12` [Naftifine hydrochloride], the HCT116-GFP viability is reported as 41%.
Compound `CC(=O)CCCCn1c(=O)c2c(ncn2C)n(C)c1=O` [Pentoxifylline] has an HCT116-GFP viability of 36%.
`CN1C(=O)OC(C)(C)C1=O` [Trimethadione] gave an HCT116-GFP viability of 51.9%.
`OCCN1CCN(CCCN2c3ccccc3C=Cc3ccccc32)CC1` [Opipramol dihydrochloride] gave an HCT116-GFP viability of 73.1%.
`C[C@H](Cc1cc2c(c(C(N)=O)c1)N(CCCO)CC2)NCCOc1ccccc1OCC(F)(F)F` [Silodosin] was tested, and the HCT116-GFP viability was 38.7%.
For `Cc1onc(-c2c(F)cccc2Cl)c1C(=O)N[C@@H]1C(=O)N2[C@@H]1SC(C)(C)[C@@H]2C(=O)O` [Flucloxacillin sodium], the HCT116-GFP viability was 27.5%.
Work on `CN(C)CCCSC(=N)N` [Dimaprit dihydrochloride] yielded an HCT116-GFP viability of 32.3%.
Compound `O=C(NCCN1CCOCC1)c1ccc(Cl)cc1` [Moclobemide] has an HCT116-GFP viability of 47.1%.
With `NS(=O)(=O)c1cc(Cl)c(Cl)c(S(N)(=O)=O)c1` [Dichlorphenamide] the HCT116-GFP viability was 73.5%.
For `CCCCCNC(=N)N/N=C/c1c[nH]c2ccc(OC)cc12` [Tegaserod maleate], the HCT116-GFP viability was 1.26%.
Work on `CCN1CCCC(OC(=O)C(c2ccccc2)c2ccccc2)C1` (centres undefined) [Piperidolate hydrochloride] yielded an HCT116-GFP viability of 38.3%.
With `CCCC1O[C@@H]2C[C@H]3[C@@H]4CCC5=CC(=O)C=C[C@]5(C)[C@H]4[C@@H](O)C[C@]3(C)[C@]2(C(=O)CO)O1` (some centres undefined) [Budesonide] the HCT116-GFP viability was 60%.
Work on `CC(C(=O)O)c1cccc(C(=O)c2ccccc2)c1` (centres undefined) [Ketoprofen] yielded an HCT116-GFP viability of 48%.
`C#C[C@]1(O)CC[C@H]2[C@@H]3CCc4cc(O)ccc4[C@H]3CC[C@@]21C` [Ethinylestradiol] showed an HCT116-GFP viability of 15.4%.
`CCCCN(CCCC)CCC(O)c1cc2c(Cl)cc(Cl)cc2c2cc(C(F)(F)F)ccc12` (centres undefined) [Halofantrine hydrochloride] was tested, and the HCT116-GFP viability was 24.5%.
Compound `CCOC(=O)C1=C(C)NC(C)=C(C(=O)OCC)C1c1ccccc1/C=C/C(=O)OC(C)(C)C` [Lacidipine] has an HCT116-GFP viability of 29.9%.
In the case of `CCOc1cc(CC(=O)N[C@@H](CC(C)C)c2ccccc2N2CCCCC2)ccc1C(=O)O` [Repaglinide], the HCT116-GFP viability is reported as 43.4%.
`COc1c(N2C[C@@H]3CCCN[C@@H]3C2)c(F)cc2c(=O)c(C(=O)O)cn(C3CC3)c12` [Moxifloxacin] gave an HCT116-GFP viability of 26.1%.
`COc1ccc(C(=O)c2ccccc2)c(O)c1` [Oxybenzone] showed an HCT116-GFP viability of 66.7%.
`COc1ncnc(NS(=O)(=O)c2ccc(N)cc2)c1OC` [Sulfadoxine] was tested, and the HCT116-GFP viability was 36.9%.
Work on `CC(=O)OCC(=O)[C@@]1(O)[C@H](C)C[C@H]2[C@@H]3CCC4=CC(=O)C=C[C@]4(C)[C@@]3(F)[C@@H](O)C[C@@]21C` [Dexamethasone acetate] yielded an HCT116-GFP viability of 88.3%.
`COc1ccc(C(=O)CC(=O)c2ccc(C(C)(C)C)cc2)cc1` [Avobenzone] was tested, and the HCT116-GFP viability was 41.6%.
Compound `Nc1nc2c(ncn2COCCO)c(=O)[nH]1` [Acyclovir] has an HCT116-GFP viability of 41.8%.
`CC(C)(C)NC(=O)[C@@H]1C[C@@H]2CCCC[C@@H]2CN1C[C@@H](O)[C@H](Cc1ccccc1)NC(=O)[C@H](CC(N)=O)NC(=O)c1ccc2ccccc2n1` [Saquinavir mesylate] gave an HCT116-GFP viability of 22.6%.
Compound `CCCCCN(CCCCC)C(=O)C(CCC(=O)O)NC(=O)c1ccc(Cl)c(Cl)c1` (centres undefined) [Lorglumide sodium salt] has an HCT116-GFP viability of 75.3%.
Compound `O=C(CCCCCCC(=O)Nc1ccccc1)NO` [Vorinostat] has an HCT116-GFP viability of 1.34%.
With `CC[C@H]1OC(=O)C[C@@H](O)[C@H](C)[C@@H](O[C@@H]2O[C@H](C)[C@@H](O[C@H]3C[C@@](C)(O)[C@@H](O)[C@H](C)O3)[C@H](N(C)C)[C@H]2O)[C@@H](CC=O)C[C@@H](C)C(=O)/C=C/C(C)=C/[C@@H]1CO[C@@H]1O[C@H](C)[C@@H](O)[C@@H](OC)[C@H]1OC` [Tylosin] the HCT116-GFP viability was 68%.
Compound `C[C@]12C[C@H](O)[C@H]3[C@@H](CCC4=CC(=O)CC[C@@]43C)[C@@H]1CC[C@@H]2C(=O)CO` [Corticosterone] has an HCT116-GFP viability of 62.1%.
Compound `COC(=O)C1=C(C)NC(C)=C(C(=O)OC2CCCN(Cc3ccccc3)C2)C1c1cccc([N+](=O)[O-])c1` (centres undefined) [Benidipine hydrochloride] has an HCT116-GFP viability of 32%.
Work on `CC1(C)O[C@@H]2C[C@H]3[C@@H]4CCC5=CC(=O)C=C[C@]5(C)[C@H]4[C@@H](O)C[C@]3(C)[C@]2(C(=O)CO)O1` [Desonide] yielded an HCT116-GFP viability of 84.1%.
`CCN(CC)C(=S)SSC(=S)N(CC)CC` [Disulfiram] gave an HCT116-GFP viability of 6.73%.
`C/C(=C(\CCOP(=O)(O)O)SC(=O)c1ccccc1)N(C=O)Cc1cnc(C)nc1N` [Benfotiamine] showed an HCT116-GFP viability of 67.6%.
Work on `Nc1c2c(nc3ccccc13)CCCC2` [Tacrine hydrochloride] yielded an HCT116-GFP viability of 57%.
In the case of `O=C1CN(/N=C/c2ccc([N+](=O)[O-])o2)C(=O)N1` [Nitrofurantoin], the HCT116-GFP viability is reported as 43.9%.
`Cc1ccccc1OCC(O)CO` (centres undefined) [Mephenesin] was tested, and the HCT116-GFP viability was 31.9%.
For `C[C@H](N)[C@H](O)c1cccc(O)c1` [Metaraminol bitartrate], the HCT116-GFP viability was 38.9%.
`CCN(CC)CCOC(=O)C(Cc1cccc2ccccc12)CC1CCCO1` (centres undefined) [Nafronyl oxalate] showed an HCT116-GFP viability of 73.5%.
For `O=C1CN(/N=C/c2ccc(-c3ccc([N+](=O)[O-])cc3)o2)C(=O)N1` [Dantrolene sodium salt], the HCT116-GFP viability was 41.7%.
For `CCOC(=O)n1ccn(C)c1=S` [Carbimazole], the HCT116-GFP viability was 37.5%.
Work on `CC1(C)S[C@@H]2[C@H](NC(=O)[C@H](C(=O)O)c3ccsc3)C(=O)N2[C@H]1C(=O)O` [Ticarcillin sodium] yielded an HCT116-GFP viability of 40.2%.
Compound `Cc1cc(NS(=O)(=O)c2ccc(N)cc2)no1` [Sulfamethoxazole] has an HCT116-GFP viability of 38.2%.
With `CN[C@@H]1[C@@H](O)[C@@H](O[C@@H]2[C@@H](O)[C@H](O[C@H]3OC(CN)=CC[C@H]3N)[C@@H](N)C[C@H]2N)OC[C@]1(C)O` [Sisomicin sulfate] the HCT116-GFP viability was 46.5%.
`CC(C)c1ccc2oc3nc(N)c(C(=O)O)cc3c(=O)c2c1` [Amlexanox] was tested, and the HCT116-GFP viability was 64%.
With `CC1(C)S[C@@H]2[C@H](NC(=O)[C@H](NC(=O)N3CCNC3=O)c3ccccc3)C(=O)N2[C@H]1C(=O)O` [Azlocillin sodium salt] the HCT116-GFP viability was 76.5%.
